For assay [1], the target named is His-tagged RAGE tail (human) (UniProt Q15109). Kind of assay: co-immunoprecipitation from transfected cells: IP with anti-his IgG, western blot with anti-myc IgG.
The target is the same in assay [2]. Kind of assay: immunoprecipitation and confocal microscopy.

Chains of the proteins cited; added tags and fusions are not shown. Lines headed by an entry give the natural chain unless they say otherwise; changes in a name come on top.
UniProt Q15109: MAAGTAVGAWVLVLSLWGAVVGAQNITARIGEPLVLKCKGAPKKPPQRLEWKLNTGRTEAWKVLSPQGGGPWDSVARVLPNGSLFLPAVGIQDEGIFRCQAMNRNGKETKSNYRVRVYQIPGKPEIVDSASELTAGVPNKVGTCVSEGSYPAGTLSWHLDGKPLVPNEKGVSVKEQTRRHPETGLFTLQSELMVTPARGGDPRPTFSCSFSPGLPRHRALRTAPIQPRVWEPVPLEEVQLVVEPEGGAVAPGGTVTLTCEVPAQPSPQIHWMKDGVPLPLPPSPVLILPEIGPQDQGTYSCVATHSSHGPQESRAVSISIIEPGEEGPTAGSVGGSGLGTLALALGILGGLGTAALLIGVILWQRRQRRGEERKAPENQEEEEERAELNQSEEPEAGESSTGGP
UniProt O60610: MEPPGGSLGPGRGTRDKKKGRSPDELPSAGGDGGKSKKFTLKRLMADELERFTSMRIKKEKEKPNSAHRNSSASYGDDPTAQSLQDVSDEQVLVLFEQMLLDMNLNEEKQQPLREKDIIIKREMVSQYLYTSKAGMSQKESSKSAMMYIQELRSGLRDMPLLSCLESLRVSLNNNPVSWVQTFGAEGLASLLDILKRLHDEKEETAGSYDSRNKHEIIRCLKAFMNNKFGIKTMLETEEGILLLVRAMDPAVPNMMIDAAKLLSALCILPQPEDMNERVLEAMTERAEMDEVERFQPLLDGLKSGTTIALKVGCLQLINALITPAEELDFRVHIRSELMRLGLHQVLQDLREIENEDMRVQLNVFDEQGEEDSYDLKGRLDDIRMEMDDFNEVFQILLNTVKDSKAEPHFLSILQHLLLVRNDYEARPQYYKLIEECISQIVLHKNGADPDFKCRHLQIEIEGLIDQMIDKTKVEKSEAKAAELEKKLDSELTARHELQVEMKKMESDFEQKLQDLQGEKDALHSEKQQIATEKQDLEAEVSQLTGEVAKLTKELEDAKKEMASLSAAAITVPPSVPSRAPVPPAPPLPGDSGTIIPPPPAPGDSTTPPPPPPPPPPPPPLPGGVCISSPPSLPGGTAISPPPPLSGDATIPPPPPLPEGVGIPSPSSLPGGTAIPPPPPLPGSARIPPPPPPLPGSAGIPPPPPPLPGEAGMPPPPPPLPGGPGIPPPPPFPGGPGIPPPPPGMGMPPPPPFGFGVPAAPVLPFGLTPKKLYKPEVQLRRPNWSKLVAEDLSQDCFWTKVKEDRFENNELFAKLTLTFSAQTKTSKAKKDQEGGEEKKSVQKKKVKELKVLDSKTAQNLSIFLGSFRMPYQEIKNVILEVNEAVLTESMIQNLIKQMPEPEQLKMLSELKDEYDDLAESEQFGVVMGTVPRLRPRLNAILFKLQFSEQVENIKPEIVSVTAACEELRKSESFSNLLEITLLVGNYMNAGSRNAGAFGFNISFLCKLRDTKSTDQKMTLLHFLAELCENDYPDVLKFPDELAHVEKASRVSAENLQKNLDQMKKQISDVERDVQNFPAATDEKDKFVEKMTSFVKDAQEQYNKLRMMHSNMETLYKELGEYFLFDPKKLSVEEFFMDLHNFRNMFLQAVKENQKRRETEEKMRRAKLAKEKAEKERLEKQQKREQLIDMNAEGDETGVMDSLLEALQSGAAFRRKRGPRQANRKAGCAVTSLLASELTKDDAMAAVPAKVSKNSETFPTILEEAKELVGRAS

The values that follow come from patent publication US20090220484A1.

Results are given in words; binding and its absence hold for the method and conditions named. For some assays here: Binding seen in cells or lysates may run through a third protein. Some binding calls cover weakened binding; strength is not graded here.

Turning to “Myc-tagged Diaphanous (from UniProt O60610 1-1272)”, the binding entry in assay [1] and in assay [2] was “binds” in each case.
